Values from PubChem BioAssay AID602196 (INSERM, 2012)
Shown is a random part of about 23,000 deposited reagents. Of all reagents, 455 (2%) were called active. 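Active includes both protection and sensitisation; some change values fall well beyond the stated -50 to +50 range.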 The numbers tell different reagents against one gene apart. Further read-outs or replicates are left out here. Not stated in the record: the amount of reagent.

- Aim: 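Modifiers of cisplatin sensitivity in A549 cells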
- Cell system: human A549 lung cancer cells
- Reagent: siRNA pair against human genes
- Timing: 48 h transfection before cisplatin; time from cisplatin to read-out not stated
- Conditions: cisplatin at a dose killing half of control-siRNA cells; exact dose and duration not given
- Measured: 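Cisplatin cell death as a shift from the 50% death seen with control siRNA; siRNAs toxic or growth-blocking alone scored 0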
- Direction: two-siRNA summed score (-2 to +2): higher = both siRNAs protect from cisplatin killing; -2 means both sensitise
- Call rule: 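siRNAs harmful alone (LDH or WST-1) get 0; others get +1 for less and -1 for more cisplatin killing; genes are active when the two siRNAs give the same sign, summing to ±2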
- Meaning of the calls: active = both siRNAs shift cisplatin killing the same way; inactive = no consistent shift, or siRNA harmful alone

gene knocked down	reagent no.	two-siRNA summed score (-2 to +2)	Outcome
TK2	1	0	inactive
CDC26	1	0	inactive
RCOR1	1	0	inactive
DEFB103B	1	0	inactive
UGT1A7	1	0	inactive
MYO19	1	0	inactive
CORO1B	1	0	inactive
CORO1B	2	0	inactive
PDZD2	1	-1	inactive
ANKRD54	1	0	inactive
DPPA4	1	0	inactive
LOC255324	1	0	inactive
LOC401845	1	0	inactive
ADORA2A	1	0	inactive
CCRL2	1	1	inactive
LOC390975	1	0	inactive
LOC161823	1	1	inactive
GDF10	1	0	inactive
SH3D19	1	0	inactive
AP2M1	1	0	inactive
LOC400813	1	0	inactive
ZMIZ1	1	0	inactive
BAGE3	1	0	inactive
NRP2	1	0	inactive
GRPEL1	1	1	inactive
CEP57L1P1	1	2	active
DNAJC22	1	0	inactive
PZP	1	0	inactive
LOC390930	1	1	inactive
RNF13	1	-1	inactive
LOC390614	1	1	inactive
SYN3	1	0	inactive
MIER1	1	0	inactive
NDUFS2	1	0	inactive
C12orf76	1	1	inactive
ABR	1	0	inactive
NKAP	1	0	inactive
SF3A2	1	0	inactive
WNT9A	1	1	inactive
